Experimental data as given in US20260049144A1 (Johns Hopkins, published 2026).
These are yes or no findings as the source states them, for the method shown. Some binding calls cover weakened binding; strength is not graded here.

Sequences of proteins named here, by UniProt entry; tags and fusion partners are left off.
UniProt Q9NZQ7: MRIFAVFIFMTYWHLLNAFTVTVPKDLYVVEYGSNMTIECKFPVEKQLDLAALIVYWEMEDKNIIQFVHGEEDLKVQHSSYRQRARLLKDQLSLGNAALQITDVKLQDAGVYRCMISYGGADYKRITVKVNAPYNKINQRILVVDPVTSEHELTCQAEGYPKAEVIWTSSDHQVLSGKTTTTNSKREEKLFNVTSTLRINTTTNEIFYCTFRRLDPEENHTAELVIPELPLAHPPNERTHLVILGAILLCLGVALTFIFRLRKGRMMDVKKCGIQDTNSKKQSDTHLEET

Key:
[1] = molecular target: PD-L1 extracellular domain (ECD) (UniProt Q9NZQ7); assay: BLI competition: atezolizumab scFv immobilized on the tip, 100 nM PD-L1, soluble B8 VNAR titrated as competitor
[2] = molecular target: PD-L1 extracellular domain (ECD) (UniProt Q9NZQ7); assay: BLI competition: B8 VNAR immobilized on the tip, 100 nM PD-L1, soluble B8 VNAR titrated as competitor
[3] = molecular target: PD-L1 extracellular domain (ECD) (UniProt Q9NZQ7); assay: BLI competition: D12 scFv immobilized on the tip, 1000 nM PD-L1, soluble B8 VNAR titrated as competitor
[4] = molecular target: PD-L1 extracellular domain (ECD) (UniProt Q9NZQ7); assay: yeast-displayed VNAR library selection (MACS/FACS)
[5] = molecular target: PD-L1 extracellular domain (ECD) (UniProt Q9NZQ7); assay: yeast surface display of the VNAR clone, titration of soluble PD-L1, flow cytometry (MFI)
[6] = molecular target: PD-L1 extracellular domain (ECD) (UniProt Q9NZQ7); assay: BLI competition: D12 scFv immobilized on the tip, 1000 nM PD-L1, soluble A9 VNAR titrated as competitor
[7] = molecular target: PD-L1 extracellular domain (ECD) (UniProt Q9NZQ7); assay: BLI competition: atezolizumab scFv immobilized on the tip, 100 nM PD-L1, soluble A9 VNAR titrated as competitor
[8] = molecular target: PD-L1 extracellular domain (ECD) (UniProt Q9NZQ7); assay: BLI competition: B8 VNAR immobilized on the tip, 100 nM PD-L1, soluble A9 VNAR titrated as competitor

B1: B8 VNAR (VNAR)
VNAR: ARVDQTPQTITKETGESLTINCVLRDASYALGSTCWYRKKSGSTNEESISIGGRYVETVNSGSKSFSLRINDLTVEDSGTYRCGVDSWCPPVCSWAYAGCGDGTAVTVN
notes: VNAR (shark single domain); Measured on yeast and as a soluble fragment (BLI); Not the same as B8 scFv
binding [1]: binds
binding [2]: binds
binding [3]: binds
binding [4]: binds

B2: C7 VNAR (VNAR)
VNAR: ARVDQTPQTITKETGESLTINCVVRDSACALVRTFWYRKKSGSTNEESISKGGRYVETVNSGSKSFSLRINDLTVEDSGTYRCKVFGWCRMRDVYGGGTVVTVN
notes: Not the same as C7 scFv
binding [5]: binds
binding [4]: binds

B3: A9 VNAR (VNAR)
VNAR: ARVDQTPQTITKETGESLTINCVVRDTACALVRTFWYRKKSGSTNEESISKGGRYVETVNRGSKSFSLRINDLTVEDSGTYRCKVFGWCRMRDVYGGGTVVTVN
notes: VNAR (shark variable new antigen receptor single domain) from nurse sharks immunised with the PD-L1 ECD; Measured on yeast and as a soluble fragment (BLI)
binding [6]: binds
binding [7]: binds
binding [4]: binds
binding [8]: binds

B4: C4 VNAR (VNAR)
VNAR: ARVDQTPLTITKETGESLTINCVLRDSNCALSSTYWYRKSSGSTNEEIISKGGRYVETVNSGSNSFSLRINDLTVEDSGTYRCKVFGWCRMRDVYGGGTVVTVN
binding [4]: binds

B5: B11 VNAR (VNAR)
VNAR: ARVDQTPQTITKETGESLTINCVLRDSNCALSSTYWYRKKSGSTNEESISKGGRYVETVNSGSKSFSLRINDLTVEDSGTYRCRLFVSWLSDYDCATYYVSGGGTVVTVN
binding [4]: binds
